Results are given in words; binding and its absence hold for the method and conditions named. In cells and extracts the contact can be indirect. A result given as binding can be weak or reduced; the word gives no strength.
Biological target: HA-HuRΔB (hinge region deleted mutant of HuR) (human)
Assay: co-IP

binding: binds
B1: Syntaxin 5, endogenous in C6 cells (protein, UniProt Q08851 1-355)
chain: MIPRKRYGSKNTDQGVYLGLSKTQVLSPATAINSSSDIAPLPTPVALVPSPPDTMSCRDRTQEFLSACKSLQSRQNGIQTNKPALHATRQCSEFTLMARRIGKDLSNTFAKLEKLTILAKRKSLFDDKAVEIEELTYIIKQDINSLNKQIAQLQDFVRAKGSQSGRHLQTHSNTIVVSLQSKLASMSNDFKSVLEVRTENLKQQRNRREQFSRAPVSALPLAPNNLGGGPIVLGGESRASRDVAIDMMDPRTSQQLQLIDEQDSYIQSRADTMQNIESTIVELGSIFQQLAHMVKEQEETIQRIDENVLGAQLDVEAAHSEILKYFQSVTSNRWLMVKIFLILIVFFIIFVVFLA

Source: paper doi:10.1101/2023.09.08.556844
